Reference: publication PMC6039025
No constants are given. Whether binding was seen depends on the method and setting. Some entries that bind do so weakly or less than the wild type. Sequences can lack the tags named with a protein.

Biological target: T1, Smc4 (wild-type), 3xStrepTagII-tagged (S. cerevisiae), Q12267
T1 chain: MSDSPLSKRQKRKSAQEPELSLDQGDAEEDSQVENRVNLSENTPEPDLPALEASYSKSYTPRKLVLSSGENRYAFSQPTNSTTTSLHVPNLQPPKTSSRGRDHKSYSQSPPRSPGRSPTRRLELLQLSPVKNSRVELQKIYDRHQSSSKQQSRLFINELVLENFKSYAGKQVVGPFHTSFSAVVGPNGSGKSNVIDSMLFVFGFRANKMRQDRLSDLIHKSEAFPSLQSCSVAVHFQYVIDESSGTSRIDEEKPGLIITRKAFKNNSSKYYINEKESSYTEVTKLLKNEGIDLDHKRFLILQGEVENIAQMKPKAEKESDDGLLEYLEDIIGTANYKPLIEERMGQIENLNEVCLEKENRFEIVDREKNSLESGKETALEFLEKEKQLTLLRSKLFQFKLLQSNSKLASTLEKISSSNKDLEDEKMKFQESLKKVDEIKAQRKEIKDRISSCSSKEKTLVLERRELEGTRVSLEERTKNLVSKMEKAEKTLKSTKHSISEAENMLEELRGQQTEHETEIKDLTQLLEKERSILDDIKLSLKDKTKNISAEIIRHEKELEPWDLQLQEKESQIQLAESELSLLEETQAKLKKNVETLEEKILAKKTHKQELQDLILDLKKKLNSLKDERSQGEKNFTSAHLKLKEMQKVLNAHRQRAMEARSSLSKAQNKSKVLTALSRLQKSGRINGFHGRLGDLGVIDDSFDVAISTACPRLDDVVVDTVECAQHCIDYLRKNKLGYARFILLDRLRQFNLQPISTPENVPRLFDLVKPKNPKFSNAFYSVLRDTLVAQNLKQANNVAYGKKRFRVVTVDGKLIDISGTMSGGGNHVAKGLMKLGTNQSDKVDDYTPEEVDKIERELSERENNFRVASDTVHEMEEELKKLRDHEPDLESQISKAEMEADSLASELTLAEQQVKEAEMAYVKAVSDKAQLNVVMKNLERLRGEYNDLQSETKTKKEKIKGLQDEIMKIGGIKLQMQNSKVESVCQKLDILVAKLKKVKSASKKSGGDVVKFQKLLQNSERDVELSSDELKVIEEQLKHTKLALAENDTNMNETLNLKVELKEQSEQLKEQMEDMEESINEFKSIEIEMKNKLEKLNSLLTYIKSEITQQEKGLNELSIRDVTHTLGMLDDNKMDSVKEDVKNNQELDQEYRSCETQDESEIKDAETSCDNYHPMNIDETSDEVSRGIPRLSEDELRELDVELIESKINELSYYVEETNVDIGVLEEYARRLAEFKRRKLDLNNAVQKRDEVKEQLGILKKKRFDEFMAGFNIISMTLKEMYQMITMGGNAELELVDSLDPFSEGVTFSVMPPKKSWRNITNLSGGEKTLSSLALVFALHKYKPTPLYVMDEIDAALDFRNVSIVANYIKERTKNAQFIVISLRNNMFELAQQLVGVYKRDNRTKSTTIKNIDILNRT
Experiment: tandem affinity co-purification (Ni-NTA, Strep-Trap) + SEC; five condensin subunits co-overexpressed in yeast; extract in 500 mM NaCl, 10 mM Tris-HCl pH 8.0, 10% glycerol; Ni-NTA (His tags on Brn1 and Ycg1), then Strep-Trap HP (3xStrepTagII on Smc4), then Superose 6 10/300 in 200 mM NaCl, 50 mM Tris-HCl pH 8.0; subunits seen by SDS-PAGE and Coomassie staining
Conditions: remark: other sources report otherwise

B1: Ycg1-3xFLAG-9xHIS, Q06680 1-1035 (protein)
chain: MQDPDGIDINTKIFNSVAEVFQKAQGSYAGHRKHIAVLKKIQSKAVEQGYEDAFNFWFDKLVTKILPLKKNEIIGDRIVKLVAAFIASLERELILAKKQNYKLTNDEEGIFSRFVDQFIRHVLRGVESPDKNVRFRVLQLLAVIMDNIGEIDESLFNLLILSLNKRIYDREPTVRIQAVFCLTKFQDEEQTEHLTELSDNEENFEATRTLVASIQNDPSAEVRRAAMLNLINDNNTRPYILERARDVNIVNRRLVYSRILKSMGRKCFDDIEPHIFDQLIEWGLEDRELSVRNACKRLIAHDWLNALDGDLIELLEKLDVSRSSVCVKAIEALFQSRPDILSKIKFPESIWKDFTVEIAFLFRAIYLYCLDNNITEMLEENFPEASKLSEHLNHYILLRYHHNDISNDSQSHFDYNTLEFIIEQLSIAAERYDYSDEVGRRSMLTVVRNMLALTTLSEPLIKIGIRVMKSLSINEKDFVTMAIEIINDIRDDDIEKQEQEEKIKSKKINRRNETSVDEEDENGTHNDEVNEDEEDDNISSFHSAVENLVQGNGNVSESDIINNLPPEKEASSATIVLCLTRSSYMLELVNTPLTENILIASLMDTLITPAVRNTAPNIRELGVKNLGLCCLLDVKLAIDNMYILGMCVSKGNASLKYIALQVIVDIFSVHGNTVVDGEGKVDSISLHKIFYKVLKNNGLPECQVIAAEGLCKLFLADVFTDDDLFETLVLSYFSPINSSNEALVQAFAFCIPVYCFSHPAHQQRMSRTAADILLRLCVLWDDLQSSVIPEVDREAMLKPNIIFQQLLFWTDPRNLVNQTGSTKKDTVQLTFLIDVLKIYAQIEKKEIKKMIITNINAIFLSSEQDYSTLKELLEYSDDIAENDNLDNVSKNALDKLRNNLNSLIEEINERSETQTKDENNTANDQYSSILGNSFNKSSNDTIEHAADITDGNNTELTKTTVNISAVDNTTEQSNSRKRTRSEAEQIDTSKNLENMSIQDTSTVAKNVSFVLPDEKSDAMSIDEEDKDSESFSEVC
- binding: binds
